Laboratory results taken from paper PMC8647151, “PLK1‐dependent phosphorylation restrains EBNA2 activity and lymphomagenesis in EBV‐infected mice” (EMBO Reports, 2021).

Protein sequences, listed by entry. Tags and fused reporters are not part of them.
UniProt P12978: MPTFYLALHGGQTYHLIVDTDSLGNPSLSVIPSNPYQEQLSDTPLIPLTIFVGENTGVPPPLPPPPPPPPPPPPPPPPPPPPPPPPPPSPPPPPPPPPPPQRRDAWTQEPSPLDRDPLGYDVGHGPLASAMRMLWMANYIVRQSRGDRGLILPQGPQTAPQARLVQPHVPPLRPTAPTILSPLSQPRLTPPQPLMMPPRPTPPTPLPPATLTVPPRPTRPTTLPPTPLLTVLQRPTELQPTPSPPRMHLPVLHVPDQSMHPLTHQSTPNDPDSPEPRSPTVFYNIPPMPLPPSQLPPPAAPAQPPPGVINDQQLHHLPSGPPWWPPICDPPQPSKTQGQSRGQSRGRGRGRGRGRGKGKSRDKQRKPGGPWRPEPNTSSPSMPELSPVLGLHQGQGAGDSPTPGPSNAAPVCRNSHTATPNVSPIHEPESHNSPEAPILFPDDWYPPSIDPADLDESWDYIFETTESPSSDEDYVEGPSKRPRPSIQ
UniProt Q06330: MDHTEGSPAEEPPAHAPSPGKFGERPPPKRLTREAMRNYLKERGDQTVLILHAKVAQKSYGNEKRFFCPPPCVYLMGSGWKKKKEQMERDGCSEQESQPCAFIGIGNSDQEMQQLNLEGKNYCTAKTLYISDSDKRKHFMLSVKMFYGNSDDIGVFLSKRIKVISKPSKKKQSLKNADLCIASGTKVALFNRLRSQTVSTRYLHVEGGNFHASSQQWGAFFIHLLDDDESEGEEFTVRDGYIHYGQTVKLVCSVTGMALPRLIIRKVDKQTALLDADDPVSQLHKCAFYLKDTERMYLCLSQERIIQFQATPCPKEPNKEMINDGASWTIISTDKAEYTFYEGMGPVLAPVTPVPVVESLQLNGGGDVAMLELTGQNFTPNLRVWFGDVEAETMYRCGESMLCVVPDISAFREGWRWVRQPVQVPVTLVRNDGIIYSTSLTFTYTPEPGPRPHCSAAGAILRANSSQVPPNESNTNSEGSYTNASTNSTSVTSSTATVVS

Target: HA-tagged EBNA2 (wild type), transfected (Epstein-Barr virus (B95-8)) (UniProt P12978)
Assay: affinity purification with mass spectrometry; DG75 cells transfected with C-terminal HA-tagged EBNA2 or HA vector; NP-40 lysis buffer (1% NP-40, 10 mM Tris-HCl pH 7.4, 3% glycerol, 150 mM NaCl, 1 mM EDTA); IP with HA-specific antibody on protein G beads; label-free LC-MS/MS

CBF1/RBPJ, endogenous (from UniProt Q06330 1-500)
binding: binds

No constants are given. Whether binding was seen depends on the method and setting. Binding seen in cells or lysates may run through a third protein. These calls come from enrichment with a bait or labelling near it, and not all partners need be listed.
